# Measurements published in the supplement of paper PMC6411743.
# The chains behind the UniProt entries cited, without tags or fusion partners. Where a name states a change or a piece, a line headed by the entry shows the natural chain unless it says otherwise.
# UniProt P21333, whole entry: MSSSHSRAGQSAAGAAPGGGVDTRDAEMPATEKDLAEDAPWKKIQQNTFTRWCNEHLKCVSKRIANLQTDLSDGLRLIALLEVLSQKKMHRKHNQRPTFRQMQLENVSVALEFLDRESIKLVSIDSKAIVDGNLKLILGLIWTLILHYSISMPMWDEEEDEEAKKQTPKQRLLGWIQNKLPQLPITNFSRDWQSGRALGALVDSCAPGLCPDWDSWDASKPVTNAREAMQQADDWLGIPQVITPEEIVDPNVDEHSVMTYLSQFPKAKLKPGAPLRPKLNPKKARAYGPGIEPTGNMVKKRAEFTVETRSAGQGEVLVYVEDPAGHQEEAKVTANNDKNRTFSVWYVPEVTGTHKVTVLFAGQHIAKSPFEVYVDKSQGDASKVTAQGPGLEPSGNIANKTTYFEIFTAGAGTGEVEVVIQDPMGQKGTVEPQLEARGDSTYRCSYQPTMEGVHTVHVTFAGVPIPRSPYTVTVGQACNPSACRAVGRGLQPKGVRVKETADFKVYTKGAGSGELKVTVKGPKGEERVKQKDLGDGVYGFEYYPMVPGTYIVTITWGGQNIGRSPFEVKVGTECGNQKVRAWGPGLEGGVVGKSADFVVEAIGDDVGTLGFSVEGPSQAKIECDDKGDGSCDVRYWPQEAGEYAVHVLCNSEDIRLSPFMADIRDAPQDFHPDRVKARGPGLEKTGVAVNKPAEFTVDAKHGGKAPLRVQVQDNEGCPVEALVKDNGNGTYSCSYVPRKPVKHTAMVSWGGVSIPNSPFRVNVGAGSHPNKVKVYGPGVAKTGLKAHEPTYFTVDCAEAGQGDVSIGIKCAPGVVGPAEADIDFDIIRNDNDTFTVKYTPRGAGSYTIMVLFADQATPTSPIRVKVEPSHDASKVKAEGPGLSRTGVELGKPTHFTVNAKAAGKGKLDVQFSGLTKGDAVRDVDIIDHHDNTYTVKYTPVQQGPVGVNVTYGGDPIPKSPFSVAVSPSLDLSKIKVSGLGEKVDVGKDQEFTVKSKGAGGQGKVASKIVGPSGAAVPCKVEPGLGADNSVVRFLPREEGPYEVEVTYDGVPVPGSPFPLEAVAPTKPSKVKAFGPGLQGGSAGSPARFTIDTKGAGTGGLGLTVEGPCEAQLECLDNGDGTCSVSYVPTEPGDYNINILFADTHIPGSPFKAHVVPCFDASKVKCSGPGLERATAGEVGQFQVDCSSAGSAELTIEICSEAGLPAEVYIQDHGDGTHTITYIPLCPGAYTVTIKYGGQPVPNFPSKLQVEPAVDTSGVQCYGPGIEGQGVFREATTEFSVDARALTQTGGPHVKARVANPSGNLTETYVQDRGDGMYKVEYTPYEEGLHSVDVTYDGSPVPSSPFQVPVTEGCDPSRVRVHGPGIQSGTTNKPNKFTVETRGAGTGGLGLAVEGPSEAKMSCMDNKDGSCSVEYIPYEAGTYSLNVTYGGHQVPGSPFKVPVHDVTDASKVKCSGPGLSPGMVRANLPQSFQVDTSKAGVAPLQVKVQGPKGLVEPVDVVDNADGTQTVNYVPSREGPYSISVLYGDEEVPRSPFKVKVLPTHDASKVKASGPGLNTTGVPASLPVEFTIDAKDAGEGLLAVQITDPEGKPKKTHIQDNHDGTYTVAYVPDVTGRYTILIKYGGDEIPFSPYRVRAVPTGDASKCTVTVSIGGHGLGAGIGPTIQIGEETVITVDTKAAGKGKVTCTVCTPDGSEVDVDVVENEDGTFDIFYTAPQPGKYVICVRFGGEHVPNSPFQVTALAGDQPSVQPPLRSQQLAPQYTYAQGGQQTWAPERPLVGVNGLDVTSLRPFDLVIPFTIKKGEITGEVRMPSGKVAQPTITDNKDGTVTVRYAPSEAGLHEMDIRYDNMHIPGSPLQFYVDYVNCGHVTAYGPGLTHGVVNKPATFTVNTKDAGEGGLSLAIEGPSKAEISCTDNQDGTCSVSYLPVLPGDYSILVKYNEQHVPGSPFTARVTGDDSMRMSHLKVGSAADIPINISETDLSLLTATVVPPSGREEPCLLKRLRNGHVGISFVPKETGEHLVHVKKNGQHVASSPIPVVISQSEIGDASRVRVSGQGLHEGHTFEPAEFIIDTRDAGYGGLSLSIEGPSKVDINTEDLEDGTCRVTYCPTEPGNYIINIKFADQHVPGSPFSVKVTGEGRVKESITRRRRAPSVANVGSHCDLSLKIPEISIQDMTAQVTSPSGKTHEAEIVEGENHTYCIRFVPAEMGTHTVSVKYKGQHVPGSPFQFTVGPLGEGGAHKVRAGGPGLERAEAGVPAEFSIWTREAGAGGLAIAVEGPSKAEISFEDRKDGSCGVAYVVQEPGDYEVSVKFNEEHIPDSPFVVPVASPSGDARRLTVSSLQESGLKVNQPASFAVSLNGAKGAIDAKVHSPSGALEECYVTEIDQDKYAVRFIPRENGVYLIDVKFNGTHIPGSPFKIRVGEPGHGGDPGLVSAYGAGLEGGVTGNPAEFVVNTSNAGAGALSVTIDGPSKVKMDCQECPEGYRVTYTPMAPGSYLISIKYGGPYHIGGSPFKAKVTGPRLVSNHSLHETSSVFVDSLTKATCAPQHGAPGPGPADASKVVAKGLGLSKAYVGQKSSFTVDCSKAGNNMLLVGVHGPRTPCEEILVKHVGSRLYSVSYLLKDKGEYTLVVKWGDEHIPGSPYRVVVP
# UniProt Q96Q05, whole entry: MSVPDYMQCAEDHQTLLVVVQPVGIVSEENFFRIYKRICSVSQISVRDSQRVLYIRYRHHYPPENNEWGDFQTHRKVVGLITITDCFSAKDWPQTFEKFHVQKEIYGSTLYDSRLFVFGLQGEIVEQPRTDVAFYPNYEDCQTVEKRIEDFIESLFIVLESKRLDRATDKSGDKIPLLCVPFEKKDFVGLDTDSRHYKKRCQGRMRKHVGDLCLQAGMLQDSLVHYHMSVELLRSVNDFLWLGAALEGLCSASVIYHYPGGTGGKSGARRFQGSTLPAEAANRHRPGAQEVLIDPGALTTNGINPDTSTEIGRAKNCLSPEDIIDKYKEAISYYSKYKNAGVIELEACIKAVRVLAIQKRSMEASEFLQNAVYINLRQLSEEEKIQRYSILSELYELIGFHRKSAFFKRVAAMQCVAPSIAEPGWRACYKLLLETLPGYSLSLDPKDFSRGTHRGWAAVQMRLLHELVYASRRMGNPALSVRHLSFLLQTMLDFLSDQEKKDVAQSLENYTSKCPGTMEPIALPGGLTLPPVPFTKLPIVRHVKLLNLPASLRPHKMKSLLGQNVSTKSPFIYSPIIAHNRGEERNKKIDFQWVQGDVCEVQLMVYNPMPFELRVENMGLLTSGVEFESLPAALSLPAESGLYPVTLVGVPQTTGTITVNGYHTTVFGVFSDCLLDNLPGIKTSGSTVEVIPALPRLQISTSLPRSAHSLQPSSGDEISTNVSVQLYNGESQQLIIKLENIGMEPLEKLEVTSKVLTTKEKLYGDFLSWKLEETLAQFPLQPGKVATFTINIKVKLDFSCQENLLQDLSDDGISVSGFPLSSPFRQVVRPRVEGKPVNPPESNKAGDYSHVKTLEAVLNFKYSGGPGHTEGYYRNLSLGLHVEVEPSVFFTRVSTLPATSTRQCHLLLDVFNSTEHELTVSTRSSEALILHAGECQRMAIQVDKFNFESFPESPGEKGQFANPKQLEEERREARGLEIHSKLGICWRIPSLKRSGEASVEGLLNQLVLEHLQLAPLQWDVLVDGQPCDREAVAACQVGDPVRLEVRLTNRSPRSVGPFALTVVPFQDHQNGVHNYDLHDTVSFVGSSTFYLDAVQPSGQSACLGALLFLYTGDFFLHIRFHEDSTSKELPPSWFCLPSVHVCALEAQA
# UniProt Q8N1F7: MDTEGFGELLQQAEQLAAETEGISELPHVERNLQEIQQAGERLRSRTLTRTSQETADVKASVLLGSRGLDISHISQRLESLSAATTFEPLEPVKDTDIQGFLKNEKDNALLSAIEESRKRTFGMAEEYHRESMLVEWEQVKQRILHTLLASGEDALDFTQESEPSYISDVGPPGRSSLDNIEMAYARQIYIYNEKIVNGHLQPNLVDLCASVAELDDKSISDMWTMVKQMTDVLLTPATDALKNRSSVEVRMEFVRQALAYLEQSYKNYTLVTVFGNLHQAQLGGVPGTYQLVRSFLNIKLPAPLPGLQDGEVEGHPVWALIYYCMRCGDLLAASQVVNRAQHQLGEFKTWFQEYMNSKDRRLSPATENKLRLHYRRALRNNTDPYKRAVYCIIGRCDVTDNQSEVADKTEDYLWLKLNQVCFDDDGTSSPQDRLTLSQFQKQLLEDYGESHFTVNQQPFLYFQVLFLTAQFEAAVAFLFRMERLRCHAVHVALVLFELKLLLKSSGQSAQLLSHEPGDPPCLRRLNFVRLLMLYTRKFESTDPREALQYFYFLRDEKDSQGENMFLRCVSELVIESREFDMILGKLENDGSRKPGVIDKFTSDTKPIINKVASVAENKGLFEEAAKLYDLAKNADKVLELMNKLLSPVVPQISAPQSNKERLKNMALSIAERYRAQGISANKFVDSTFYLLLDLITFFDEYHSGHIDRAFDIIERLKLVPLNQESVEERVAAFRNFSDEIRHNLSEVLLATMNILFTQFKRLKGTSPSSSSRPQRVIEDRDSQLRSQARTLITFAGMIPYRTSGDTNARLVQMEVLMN
# UniProt Q9NWH9: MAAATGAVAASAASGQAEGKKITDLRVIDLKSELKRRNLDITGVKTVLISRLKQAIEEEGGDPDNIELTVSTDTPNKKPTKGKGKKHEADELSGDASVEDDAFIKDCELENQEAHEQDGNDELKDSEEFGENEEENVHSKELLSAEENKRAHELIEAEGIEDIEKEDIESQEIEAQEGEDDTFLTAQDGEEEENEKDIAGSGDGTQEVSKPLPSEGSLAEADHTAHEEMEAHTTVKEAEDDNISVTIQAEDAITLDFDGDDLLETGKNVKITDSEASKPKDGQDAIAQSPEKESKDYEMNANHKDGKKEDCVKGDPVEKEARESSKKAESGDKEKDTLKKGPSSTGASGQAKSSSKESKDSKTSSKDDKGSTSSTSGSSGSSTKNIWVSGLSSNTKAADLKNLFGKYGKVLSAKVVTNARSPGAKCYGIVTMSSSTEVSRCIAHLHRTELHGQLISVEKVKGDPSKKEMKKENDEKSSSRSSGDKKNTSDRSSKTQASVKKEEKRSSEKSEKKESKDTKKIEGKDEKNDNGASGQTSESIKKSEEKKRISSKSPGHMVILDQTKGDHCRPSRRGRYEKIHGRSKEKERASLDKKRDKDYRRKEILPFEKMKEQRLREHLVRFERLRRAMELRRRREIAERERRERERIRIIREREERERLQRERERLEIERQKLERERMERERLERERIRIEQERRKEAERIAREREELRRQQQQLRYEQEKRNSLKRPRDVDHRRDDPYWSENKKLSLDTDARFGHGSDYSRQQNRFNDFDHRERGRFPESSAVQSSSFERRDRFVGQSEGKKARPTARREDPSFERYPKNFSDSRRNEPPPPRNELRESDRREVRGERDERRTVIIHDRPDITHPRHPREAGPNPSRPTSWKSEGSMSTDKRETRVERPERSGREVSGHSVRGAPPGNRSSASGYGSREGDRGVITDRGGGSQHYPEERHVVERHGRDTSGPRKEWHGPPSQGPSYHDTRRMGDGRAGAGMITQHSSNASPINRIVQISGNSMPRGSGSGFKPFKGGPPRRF
# UniProt Q9NQ48: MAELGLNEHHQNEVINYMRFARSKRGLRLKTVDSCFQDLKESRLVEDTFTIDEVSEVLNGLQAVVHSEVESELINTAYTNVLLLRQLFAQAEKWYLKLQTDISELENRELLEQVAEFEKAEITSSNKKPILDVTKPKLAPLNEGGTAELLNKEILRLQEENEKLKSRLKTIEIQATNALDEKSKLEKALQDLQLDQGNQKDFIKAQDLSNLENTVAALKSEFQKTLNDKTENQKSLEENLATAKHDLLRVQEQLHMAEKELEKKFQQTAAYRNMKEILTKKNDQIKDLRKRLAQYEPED
# UniProt O94952: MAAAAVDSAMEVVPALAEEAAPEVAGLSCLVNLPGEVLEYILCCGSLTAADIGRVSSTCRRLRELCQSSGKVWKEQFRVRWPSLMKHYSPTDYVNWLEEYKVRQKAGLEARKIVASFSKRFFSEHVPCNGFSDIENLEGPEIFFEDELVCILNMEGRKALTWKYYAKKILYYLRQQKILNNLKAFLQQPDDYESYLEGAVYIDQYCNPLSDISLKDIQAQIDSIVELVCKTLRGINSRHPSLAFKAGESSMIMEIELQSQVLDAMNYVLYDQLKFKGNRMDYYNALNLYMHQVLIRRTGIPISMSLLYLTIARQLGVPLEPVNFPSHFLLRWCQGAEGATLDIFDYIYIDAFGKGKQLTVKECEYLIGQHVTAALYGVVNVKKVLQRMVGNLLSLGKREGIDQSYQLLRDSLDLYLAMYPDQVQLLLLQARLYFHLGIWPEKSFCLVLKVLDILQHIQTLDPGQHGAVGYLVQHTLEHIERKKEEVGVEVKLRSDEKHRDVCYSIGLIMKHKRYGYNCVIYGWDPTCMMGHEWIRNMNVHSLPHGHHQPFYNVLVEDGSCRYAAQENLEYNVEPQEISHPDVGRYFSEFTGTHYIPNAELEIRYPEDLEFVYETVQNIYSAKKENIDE
# ± gives the standard deviation of the averaged measurements. Only a part is listed here, and it is no random draw. Most entries show no effect beyond the scatter of the controls.
# Compound: Nc1ncnc2c1ncn2[C@@H]1O[C@H](COP(=O)(O)OP(=O)(O)NP(=O)(O)O)[C@@H](O)[C@H]1O [adenylyl imidodiphosphate]
# Assay: NP40-soluble protein abundance relative to vehicle (solubility fold change) (ratio); higher = more soluble protein in presence of AMP-PNP
# Summary of the method: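 Across three independent experiments, values are fold changes against the detergent-processed vehicle for each replicate, based on vsn-normalised intensities. The samples were Jurkat crude lysate treated with eight concentrations (0.1 to 10 mM) for 10 min at room temperature and then 3 min at 37 °C. Lysate was solubilised with 0.8% NP40 and benzonase, ultracentrifuged, and the supernatant analysed by TMT-labelled LC-MS/MS.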
Target,NP40-soluble protein abundance (concentration: 0.1mM),NP40-soluble protein abundance (concentration: 0.5mM)
H0YEU4 and related entries (UniProt Q03164),1.02 ± 0.056,1.01 ± 0.036
H7BYY2 and related entries (UniProt Q6W2J9),0.994 ± 0.03,0.946 ± 0.09
G3XAG1 and related entries (UniProt Q96ME7),1 ± 0.028,1.07 ± 0.057
G3V4X1 and related entries (UniProt P62191),0.99 ± 0.027,0.979 ± 0.041
H0YLM8 and related entries (UniProt Q8TDJ6),0.97 ± 0.043,0.947 ± 0.05
H7C0G7 and related entries (UniProt Q9H9Q4),1.02 ± 0.012,1.05 ± 0.022
J3KNF5 and related entries (UniProt O15078),0.979 ± 0.026,0.967 ± 0.016
H0YK61 and related entries (UniProt Q5J8M3),0.963 ± 0.051,0.996 ± 0.069
H0YLF3 and related entries (UniProt P61769),0.923 ± 0.2,0.935 ± 0.18
J3KNV1 and related entries (UniProt O60281),1.03 ± 0.02,0.991 ± 0.032
H0Y2S9 and related entries (UniProt Q6WCQ1),1.02 ± 0.058,1.01 ± 0.011
I3L165 and related entries (UniProt O14964),0.9849 ± 0.0048,0.982 ± 0.021
J3KS94 and related entries (UniProt P02686),0.97 ± 0.015,1.01 ± 0.083
J3KTA1 and related entries (UniProt Q96IG2),1.03 ± 0.038,0.996 ± 0.046
J3KNQ1 and related entries (UniProt Q6P2D0),0.966 ± 0.039,1.012 ± 0.0039
J3KTE4 and related entries (UniProt P84098),1.02 ± 0.045,1.01 ± 0.023
I3L1A3 and related entries (UniProt O76021),0.9969 ± 0.0073,1.07 ± 0.047
H0Y5C6 and related entries (UniProt P21333),0.972 ± 0.022,0.983 ± 0.029
H0YBR0 and related entries (UniProt Q96Q05),1.12 ± 0.23,0.945 ± 0.034
H0Y612 and related entries (UniProt Q9UPN9),1.01 ± 0.033,1.01 ± 0.029
H3BVG0 and related entries (UniProt Q8N1F7),0.9952 ± 0.0057,0.99 ± 0.019
G3V5T0 and related entries (UniProt O43708),1.01 ± 0.021,0.975 ± 0.063
H0YLE6 and related entries (UniProt Q9NWH9),0.975 ± 0.047,1.01 ± 0.035

# In a second layout: results already given.
Target | NP40-soluble protein abundance (concentration: 0.1mM) | NP40-soluble protein abundance (concentration: 0.5mM)
G3XAG1 and related entries (UniProt Q96ME7) | 1 ± 0.028 | 1.07 ± 0.057
G3V4X1 and related entries (UniProt P62191) | 0.99 ± 0.027 | 0.979 ± 0.041
H0YLM8 and related entries (UniProt Q8TDJ6) | 0.97 ± 0.043 | 0.947 ± 0.05
H7C0G7 and related entries (UniProt Q9H9Q4) | 1.02 ± 0.012 | 1.05 ± 0.022

# Additional records:

Target,NP40-soluble protein abundance (concentration: 0.1mM),NP40-soluble protein abundance (concentration: 0.5mM)
H7C488 and related entries (UniProt Q9NQ48),0.992 ± 0.091,0.989 ± 0.09
H0YIE9 and related entries (UniProt O94952),1.02 ± 0.021,1.01 ± 0.045
I3L1Q3 and related entries (UniProt Q8TE02),1 ± 0.031,1 ± 0.037
J3KR58 and related entries (UniProt Q99611),1.04 ± 0.046,1.01 ± 0.07
J3KPP0 and related entries (UniProt Q9Y6G3),1.01 ± 0.084,0.938 ± 0.068
J3KNG8 and related entries (UniProt Q8TF40),1.01 ± 0.029,0.998 ± 0.018
J3KQ09 and related entries (UniProt Q9UNA4),1.02 ± 0.037,1 ± 0.037
H0YM31 and related entries (UniProt Q16822),1.01 ± 0.019,0.988 ± 0.03
H3BNW0 and related entries (UniProt Q9NXG2),0.973 ± 0.027,1.02 ± 0.067
H0Y860 and related entries (UniProt Q9P246),0.972 ± 0.036,0.924 ± 0.019
G5E9Z2 and related entries (UniProt Q96KA5),1.022 ± 0.01,1.03 ± 0.037
H0YHA7 and related entries (UniProt Q07020),1.12 ± 0.0087,1.04 ± 0.074
H0YJ21 and related entries (UniProt Q14204),1.05 ± 0.027,0.994 ± 0.083
H3BUV9 and related entries (UniProt Q96S82),1.05 ± 0.036,0.994 ± 0.035
J3KP26 and related entries (UniProt Q86W74),0.999 ± 0.018,0.985 ± 0.063
I3VM54 and related entries (UniProt Q9Y2K7),1 ± 0.028,1.01 ± 0.053
J3KR72 and related entries (UniProt P49848),1.01 ± 0.032,1.06 ± 0.042
H0Y7L2 and related entries (UniProt Q96N67),1.01 ± 0.021,0.977 ± 0.038
J3KQ32 and related entries (UniProt Q9NTK5),0.9771 ± 0.0097,0.989 ± 0.042
H3BRF9 and related entries (UniProt Q96K21),0.9639 ± 0.0082,0.963 ± 0.02
J3KNA0 and related entries (UniProt Q15070),1.02 ± 0.025,0.977 ± 0.039
H7C3T3 (UniProt Q9UPV9),0.956 ± 0.043,0.925 ± 0.045
G3V4K3 and related entries (UniProt Q9H9C1),0.993 ± 0.006,0.961 ± 0.038
